{
  "source": "patent US8691768B2",
  "about": "“Methods of determining delta opioid receptor subtypes” (The Regents of the University of California, priority 2008, dated 2014)",
  "test_system": "Lewis rats, ventral tegmental area (VTA)",
  "assay": "Ethanol self-administration (two-bottle continuous access) after microinjection into the VTA",
  "type": "in vivo",
  "method": "Male Lewis rats (Harlan Laboratories, Indianapolis, Ind.) weighing between 275-300 g were individually housed in a temperature controlled colony room (21° C.) maintained on a reversed light/dark cycle 12L:12D cycle (lights off at 10 A.M., lights on at 10 P.M.). All experiments were performed during the dark portion of the cycle. Food and water was provided ad libitum.\nEthanol was administered via a two-bottle continuous access, free-choice paradigm in which one bottle contained 10% ETOH (v/v) and the other bottle contained water. Sucrose was never added to the ethanol solution. The amount of ETOH and water consumed was measured at the same time daily (10 A.M.). […] Animals were weighed daily. Bottles were identical and their positions were counterbalanced and rotated daily. Change in drinking was calculated by subtracting the amount of drinking (mg/kg) on the day following treatment from the amount of drinking (mg/kg) on the day prior to treatment.\nAnimals were anesthetized and maintained on isoflurane (0.5 l/min) as needed for the duration of surgery. Animals were placed in a stereotaxic frame and were implanted with bilateral 26-gauge stainless steel chronic guide cannulas (Plastincs One, Roanoke, Va.) into the VTA (AP, −5.8; ML, ±0.5; DV, −7.0) based on the atlas of Paxinos and Watson (1997, The rat brain in sterotaxic coordinates, compact, Ed 3. San Diego: Academic). Cannulas were secured to the skull with dental cement. At the end of the surgical procedure, animals were treated with penicillin and topical antibiotics. […]\nEach injection was made using a 1 μl syringe (Hamilton, Reno, Nev.) attached to 20 cm of PE 50 tubing connected to a 33-gauge injection cannula (Plastics One). […] Change in drinking due to drug microinjections was calculated by comparing both the previous day's consumption (“baseline”) and to saline injection. […]\nResults are presented as mean±SEM where appropriate. For behavioral data, drinking was analyzed using 24 h time points. […]",
  "note": "For at least one compound, name, drawing or mass did not settle the structure.",
  "data": [
    {"smiles": "CN1CCc2cc3c(cc2[C@H]1[C@@H]1OC(=O)c2c1ccc1c2OCO1)OCO3", "note": "[bicuculline]", "values": [
      {"measurement": "drinking (EtOH)", "setting": "bicuculline 1 mM coadministered with TIPP-ψ 5 μM, all animals", "result": "small overall decrease"},
      {"measurement": "decrease in drinking, median split", "setting": "bicuculline 1 mM coadministered with TIPP-ψ 5 μM, high-drinking animals", "result": "carried by high-drinking animals"},
      {"measurement": "TIPP-ψ induced increase in EtOH consumption", "setting": "bicuculline 1 mM coinjected with TIPP-ψ 5 μM into VTA, low-drinking animals", "result": "completely blocked"}
    ]}
  ]
}
